{
  "sequences": {"note": "Protein sequences, listed by entry. Tags and fused reporters are not part of them. Lines headed by an entry give the natural chain unless they say otherwise; changes in a name come on top.", "UniProt O95166": "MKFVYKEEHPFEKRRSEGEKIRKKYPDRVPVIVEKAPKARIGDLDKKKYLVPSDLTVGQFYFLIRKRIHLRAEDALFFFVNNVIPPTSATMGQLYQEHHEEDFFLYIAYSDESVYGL", "UniProt Q9P278": "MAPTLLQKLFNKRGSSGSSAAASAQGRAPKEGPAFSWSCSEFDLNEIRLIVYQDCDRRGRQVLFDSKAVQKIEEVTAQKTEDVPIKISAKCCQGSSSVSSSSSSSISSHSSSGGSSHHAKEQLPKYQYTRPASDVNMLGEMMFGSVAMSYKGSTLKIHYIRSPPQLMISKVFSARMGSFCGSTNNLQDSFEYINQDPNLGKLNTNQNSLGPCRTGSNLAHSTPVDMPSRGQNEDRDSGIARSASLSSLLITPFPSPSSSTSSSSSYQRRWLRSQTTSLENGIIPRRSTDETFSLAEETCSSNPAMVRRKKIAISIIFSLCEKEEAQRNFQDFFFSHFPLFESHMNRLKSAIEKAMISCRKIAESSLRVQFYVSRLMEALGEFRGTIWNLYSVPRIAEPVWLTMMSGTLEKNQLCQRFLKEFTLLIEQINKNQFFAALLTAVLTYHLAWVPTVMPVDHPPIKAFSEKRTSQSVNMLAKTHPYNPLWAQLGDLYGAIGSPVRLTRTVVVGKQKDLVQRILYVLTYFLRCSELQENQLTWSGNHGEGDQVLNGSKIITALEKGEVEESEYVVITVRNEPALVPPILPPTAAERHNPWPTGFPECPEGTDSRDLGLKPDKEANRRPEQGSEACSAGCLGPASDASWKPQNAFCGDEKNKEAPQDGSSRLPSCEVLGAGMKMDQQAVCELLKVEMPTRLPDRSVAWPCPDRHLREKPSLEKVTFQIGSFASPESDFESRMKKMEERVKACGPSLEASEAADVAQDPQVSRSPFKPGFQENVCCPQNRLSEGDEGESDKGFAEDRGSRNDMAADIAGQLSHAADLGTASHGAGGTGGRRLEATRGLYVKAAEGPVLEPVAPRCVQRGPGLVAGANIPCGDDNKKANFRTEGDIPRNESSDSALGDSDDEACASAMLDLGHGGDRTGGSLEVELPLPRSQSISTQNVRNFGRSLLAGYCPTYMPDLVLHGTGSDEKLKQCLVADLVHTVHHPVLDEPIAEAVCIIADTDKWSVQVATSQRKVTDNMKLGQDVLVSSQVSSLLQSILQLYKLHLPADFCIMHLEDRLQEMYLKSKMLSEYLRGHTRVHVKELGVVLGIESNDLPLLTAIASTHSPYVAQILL"},
  "source": "paper doi:10.1101/2021.02.22.432209",
  "biological_target": "GABARAP, full-length (as part of the FNIP2-GABARAP chimera) (human) (UniProt O95166)",
  "experiment": "crystal structure",
  "note": "Results are given in words; binding and its absence hold for the method and conditions named. Some binding calls cover weakened binding; strength is not graded here.",
  "data": [
    {"binder": "EKGEVEESEYVVITVRNEP (domain or fragment, UniProt Q9P278 558-576)", "note": "[FNIP2 residues 558-576 (as part of the FNIP2-GABARAP chimera)]", "values": [
      {"measurement": "binding", "result": "binds"}
    ]}
  ]
}
